Laboratory results as given in the supplement of paper PMC4862054.
Small differences around the control level are noise.

What was measured:
Assay in all cases: normalised response (% of control), CellTox Green; higher = less cell death (100 = DMSO, 0 = benzethonium chloride kill control)
Conditions in all cases: incubation time: 72 h
HCC1599 = tested on: HCC1599
Procedure: (§1)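 DSRT, 72 h incubation, CellTox Green / CellTiter-Glo readout. Signal is normalised to DMSO and benzethonium chloride controls. Value is the normalised response at dose 2.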

MDA-MB-468 = tested on: MDA-MB-468
Procedure: as §1

HCC1937 = tested on: HCC1937
Procedure: as §1

CAL-85-1 = tested on: CAL-85-1
Procedure: as §1

BT-474 = tested on: BT-474
Procedure: as §1

MFM-223 = tested on: MFM-223
Procedure: as §1

DU-4475 = tested on: DU-4475
Procedure: as §1

CAL-148 = tested on: CAL-148
Procedure: as §1

HCC1143 = tested on: HCC1143
Procedure: as §1

CAL-51 = tested on: CAL-51
Procedure: as §1

BT-549 = tested on: BT-549
Procedure: as §1

Hs578T = tested on: Hs578T
Procedure: as §1

MDA-MB-453 = tested on: MDA-MB-453
Procedure: as §1

CAL-120 = tested on: CAL-120
Procedure: as §1

HDQ-P1 = tested on: HDQ-P1
Procedure: as §1

MDA-MB-231 = tested on: MDA-MB-231
Procedure: as §1

MCF-10A = tested on: MCF-10A
Procedure: as §1

MDA-MB-436 = tested on: MDA-MB-436
Procedure: as §1

Row | SMILES | normalised response (HCC1599) | normalised response (MDA-MB-468) | normalised response (HCC1937) | normalised response (CAL-85-1) | normalised response (BT-474) | normalised response (MFM-223) | normalised response (DU-4475) | normalised response (CAL-148) | normalised response (HCC1143) | normalised response (CAL-51) | normalised response (BT-549) | normalised response (Hs578T) | normalised response (MDA-MB-453) | normalised response (CAL-120) | normalised response (HDQ-P1) | normalised response (MDA-MB-231) | normalised response (MCF-10A) | normalised response (MDA-MB-436)
1 | CC(=O)Nc1ccc(C(=O)Nc2ccccc2N)cc1 [Tacedinaline] (1 nM) | 98.1% | 112% | 54.5% | 99.2% | 83.3% | 89.4% | 100% | 103% | 65.4% | 111% | 97.3% | 115% | 99.7% | 103% | 105% | 103% | 94.5% | 
2 | Cn1c(=O)n(-c2ccc(C(C)(C)C#N)cc2)c2c3cc(-c4cnc5ccccc5c4)ccc3ncc21 [Dactolisib] (1 nM) | 117% | 66.3% |  | 93.5% | 103% | 104% | 115% | 83.3% | 90.2% | 97.7% | 105% | 121% | 111% | 108% | 65.9% | 104% | 77.4% | 106%
3 | Nc1nc(Cl)nc2c1ncn2[C@H]1C[C@H](O)[C@@H](CO)O1 [Cladribine] (1 nM) | 96.5% | 100% | 100% | 99.9% | 102% | 100% | 97.4% | 98.8% |  | 98.6% | 98.2% | 116% | 99.8% | 99.2% | 113% | 108% | 106% | 92.5%
4 | CCc1c(C(=O)C(N)=O)c2c(OCC(=O)O)cccc2n1Cc1ccccc1 [Varespladib] (10 nM) | 102% | 107% |  | 103% | 103% | 103% | 95.7% | 105% | 113% | 113% | 83.1% | 119% | 97.9% | 99.5% | 111% | 118% |  | 92.7%
5 | O=C(O)CCCc1ccc(N(CCCl)CCCl)cc1 [Chlorambucil] (10 nM) | 97.2% | 70.5% | 94.6% | 97.2% | 102% | 101% | 95.2% | 72.5% | 114% | 97.2% | 98.3% | 58.4% | 68.2% | 93.6% | 98.4% | 105% |  | 92%
8 | N[C@@H](Cc1ccc(N(CCCl)CCCl)cc1)C(=O)O [Melphalan] (12.5 nM) | 75.2% | 94.6% | 59.3% | 103% | 95.8% | 105% | 95% | 108% |  | 94% | 109% | 129% | 98.5% | 100% | 110% | 111% | 101% | 98.9%
10 | CS(=O)(=O)CCNCc1ccc(-c2ccc3ncnc(Nc4ccc(OCc5cccc(F)c5)c(Cl)c4)c3c2)o1 [Lapatinib] (1 nM) | 109% | 78.3% | 114% | 91.4% | 101% | 101% | 104% | 106% |  | 88.9% | 95.3% | 68.7% | 104% | 102% | 121% |  | 114% | 78%
11 | C[C@]1(O)C[C@@H](c2nc(-c3ccc4ccc(-c5ccccc5)nc4c3)c3c(N)nccn32)C1 [Linsitinib] (10 nM) | 99.5% | 68.9% | 96.7% | 96.9% | 101% | 96.1% | 97.9% | 101% | 108% | 84.6% | 101% |  | 100% | 96.7% | 110% | 82.8% |  | 93.9%
